Binding data for one substance are collected here from publication PMC12667515.

Chains of the proteins cited; added tags and fusions are not shown.
UniProt P04867: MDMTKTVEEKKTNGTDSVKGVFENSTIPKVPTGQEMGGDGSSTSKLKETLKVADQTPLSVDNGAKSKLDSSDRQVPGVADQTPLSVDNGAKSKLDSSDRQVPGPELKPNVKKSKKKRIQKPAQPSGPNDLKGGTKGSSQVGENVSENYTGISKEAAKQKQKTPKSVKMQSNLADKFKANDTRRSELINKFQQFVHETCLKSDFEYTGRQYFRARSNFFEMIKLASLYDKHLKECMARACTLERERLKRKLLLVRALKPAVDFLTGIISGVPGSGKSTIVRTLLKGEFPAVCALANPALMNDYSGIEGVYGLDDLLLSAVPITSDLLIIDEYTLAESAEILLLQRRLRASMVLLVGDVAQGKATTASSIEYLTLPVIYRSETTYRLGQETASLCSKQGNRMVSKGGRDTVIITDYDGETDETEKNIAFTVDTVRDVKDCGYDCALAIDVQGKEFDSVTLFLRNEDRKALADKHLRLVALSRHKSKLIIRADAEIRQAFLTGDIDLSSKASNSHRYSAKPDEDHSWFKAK
UniProt P05804: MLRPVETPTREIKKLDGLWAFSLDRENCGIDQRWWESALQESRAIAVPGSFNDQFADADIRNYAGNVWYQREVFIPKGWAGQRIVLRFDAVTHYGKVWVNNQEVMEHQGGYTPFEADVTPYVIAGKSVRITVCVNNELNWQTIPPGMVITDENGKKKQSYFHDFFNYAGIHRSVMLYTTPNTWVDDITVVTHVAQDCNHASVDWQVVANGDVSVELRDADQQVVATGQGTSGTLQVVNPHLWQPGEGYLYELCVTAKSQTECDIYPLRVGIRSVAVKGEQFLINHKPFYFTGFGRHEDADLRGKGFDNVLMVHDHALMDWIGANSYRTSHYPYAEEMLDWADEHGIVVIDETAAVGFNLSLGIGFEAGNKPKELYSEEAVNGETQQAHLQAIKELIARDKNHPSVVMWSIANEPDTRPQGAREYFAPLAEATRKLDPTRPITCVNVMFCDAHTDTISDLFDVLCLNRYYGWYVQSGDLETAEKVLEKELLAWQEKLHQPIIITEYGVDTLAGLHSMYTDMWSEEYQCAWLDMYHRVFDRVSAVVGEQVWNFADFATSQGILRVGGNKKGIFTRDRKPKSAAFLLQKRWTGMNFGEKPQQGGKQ

The target of this experiment is cLuc–TGB1 (BSMV TGB1) (barley stripe mosaic virus) (UniProt P04867). Nature of the experiment: split reporter; firefly luciferase complementation imaging (LCI, split-LUC); nLuc and cLuc fusions co-infiltrated into N. benthamiana leaves, 48 hpi, 1 mmol/L luciferin.

These are yes or no findings as the source states them, for the method shown. In cells and extracts the contact can be indirect.

On to “GUS–nLuc (from UniProt P05804 1-603) (enzyme)”, for which the binding entry is on record as “no binding”.
